Laboratory results reported in patent publication US5547962A, “5-amino-8-methyl-7-pyrrolidinylquinoline-3-carboxylic acid derivative” (priority 1993, dated 1996).

Test system: Male Hartley guinea pigs
Assay type: in vivo
Settings: 10 mg/kg i.v., UVA 90 minutes, 24 h after irradiation
Procedure: Male Hartley guinea pigs were intravenously administered test compounds at a dose of 10 mg/kg, and immediately exposed to UVA on their backs for 90 minutes. Erythemas on the backs were observed 24 h after UVA irradiation.

SMILES: O=C(O)c1cn(C2CC2)c2cc(N3CCNCC3)c(F)cc2c1=O [Ciprofloxacin, ciprofloxacin]
- Phototoxicity: number of animals with erythemas/number of animals tested: 3/5
